The list does not hold the whole screen: it gathers tests that were run many times, whatever their T/C, doses with no T/C, and many T/C values between a quarter and a half above the control. Other doses and runs of a compound stand elsewhere. T/C: endpoint of the treated group in % of that of the vehicle group. Some entries give survivors of the animals treated and no T/C: the source files T/C as zero there, which appears to mark a toxic dose or a test without result, not a measured value. Some survivor counts are full or nearly so, which does not show that the dose was tolerated: survival well below the control is almost never listed, so the zero probably covers shortened survival too. Counts of survivors are from the toxicity check (mostly the fifth day) where no day follows; animals may have died later. Schedules are NCI's codes, read here as Q, the interval in days (D) or hours (H), X, the number of doses. Some doses were run more than once; the results are listed from low to high. Where survival is the endpoint, this PubChem deposit counts one and a half times the control or more as active, and values a quarter to a half above the control carry no call in these data; other NCI protocols may use other cut-offs. Some T/C values are followed by the survivors on the day toxicity was checked, most often the fifth; where none is given, no animal had died by that day.
Tested on: CD2F1 mice, L1210 leukemia ip, survival T/C
Experiment: NCI In Vivo Anticancer Drug Screen. Data for tumor model L1210 Leukemia (intraperitoneal) in CD2F1 (CDF1) mice
Settings: higher T/C = longer survival
Method in brief: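 Ratio T/C, where T is the treated-group value and C the vehicle-dosed control value, from mice implanted with a transplantable tumor.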

[1] = T/C endpoint: mean survival time, dose: 400.0 mg/kg/injection, schedule: Q04DX003 (ip), vehicle: saline with Tween-80
[2] = T/C endpoint: mean survival time, dose: 400.0 mg/kg/injection, schedule: Q01DX001 (ip), vehicle: saline
[3] = T/C endpoint: mean survival time, dose: 100.0 mg/kg/injection, schedule: Q04DX003 (ip), vehicle: saline with Tween-80
[4] = T/C endpoint: mean survival time, dose: 200.0 mg/kg/injection, schedule: Q04DX003 (ip), vehicle: saline with Tween-80
[5] = T/C endpoint: mean survival time, dose: 12.5 mg/kg/injection, schedule: Q01DX009 (ip), vehicle: saline
[6] = T/C endpoint: mean survival time, dose: 100.0 mg/kg/injection, schedule: Q01DX009 (ip), vehicle: saline
[7] = T/C endpoint: mean survival time, dose: 100.0 mg/kg/injection, schedule: Q01DX009 (ip), vehicle: saline with Tween-80
[8] = T/C endpoint: mean survival time, dose: 400.0 mg/kg/injection, schedule: Q01DX001 (ip), vehicle: saline with Tween-80

Structure (SMILES): CCCCC(C#N)C(=O)OCC (stereo unspecified)
- survivor count [1]: 1 of 3

Structure (SMILES): O=[N+]([O-])O.O=[N+]([O-])O.[NH-]C(c1ccccc1)C([NH-])c1ccccc1.[Pt+2] (stereo unspecified)
- T/C (T/C endpoint: mean survival time, dose: 6.25 mg/kg/injection, schedule: Q04DX003 (ip), vehicle: saline with Tween-80): 131 % of control [5 of 6 alive]

Structure (SMILES): OCCc1ccncc1
- survivor count [2]: 0 of 4

Structure (SMILES): CC(O)C(=O)[O][Hg][c]1ccccc1 (stereo unspecified)
- survivor count (T/C endpoint: mean survival time, dose: 20.0 mg/kg/injection, schedule: Q04DX003 (ip), vehicle: saline with Tween-80): 6 of 6
- survivor count (T/C endpoint: mean survival time, dose: 40.0 mg/kg/injection, schedule: Q04DX003 (ip), vehicle: saline with Tween-80): 0 of 6

Structure (SMILES): O=NN(CCCl)C(=O)Oc1cc(Cl)c(Cl)cc1Cl
- T/C (T/C endpoint: median survival time, dose: 50.0 mg/kg/injection, schedule: Q01DX009 (ip), vehicle: Klucel (hydroxypropylcellulose) (HPC)): 137 % of control
- survivor count (T/C endpoint: median survival time, dose: 200.0 mg/kg/injection, schedule: Q01DX009 (ip), vehicle: Klucel (hydroxypropylcellulose) (HPC)): 0 of 6 and 5 of 6

Structure (SMILES): CCCCCCCCCCCc1n(Cc2ccccc2)c2ccccc2[n+]1C
- survivor count (T/C endpoint: mean survival time, dose: 5.0 mg/kg/injection, schedule: Q04DX003 (ip), vehicle: saline): 0 of 6
- survivor count (T/C endpoint: mean survival time, dose: 10.0 mg/kg/injection, schedule: Q04DX003 (ip), vehicle: saline): 2 of 6
- survivor count (T/C endpoint: mean survival time, dose: 20.0 mg/kg/injection, schedule: Q04DX003 (ip), vehicle: saline): 0 of 6
- survivor count [3]: 0 of 6
- survivor count [4]: 0 of 6
- survivor count [1]: 0 of 6

Structure (SMILES): CC(C)(C)NC(=O)CCC(CC(=O)NC(C)(C)C)C1([N+](=O)[O-])CCCCC1 (stereo unspecified)
- survivor count (T/C endpoint: mean survival time, dose: 400.0 mg/kg/injection, schedule: Q01DX009 (ip), vehicle: saline with Tween-80): 6 of 6

Structure (SMILES): O=C(O)c1c(Sc2ccccc2)cccc1Sc1ccccc1
- survivor count (T/C endpoint: mean survival time, dose: 100.0 mg/kg/injection, schedule: Q04DX002 (ip), vehicle: saline with Tween-80): 2 of 3

Structure (SMILES): CC1=C(/C=C/C(C)(O)CC2=NC(C)(C)CO2)C(C)(C)CCC1 (stereo unspecified)
- survivor count [4]: 6 of 6

Structure (SMILES): CCN(CCP(c1ccccc1)c1ccccc1)CCP(c1ccccc1)c1ccccc1
- T/C (T/C endpoint: mean survival time, dose: 75.0 mg/kg/injection, schedule: Q01DX001 (ip), vehicle: other): 130 % of control

Structure (SMILES): COC1=CCC2=C(C1)CC(C)O2 (stereo unspecified)
- survivor count (T/C endpoint: mean survival time, dose: 400.0 mg/kg/injection, schedule: Q01DX009 (ip), vehicle: acetone): 1 of 6

Structure (SMILES): C=CCN(CC=C)P(=O)(N(CC=C)CC=C)N1CC1
- survivor count (T/C endpoint: mean survival time, dose: 25.0 mg/kg/injection, schedule: Q01DX015 (ip), vehicle: saline): 5 of 6
- survivor count (T/C endpoint: mean survival time, dose: 37.5 mg/kg/injection, schedule: Q01DX015 (ip), vehicle: saline): 3 of 6

Structure (SMILES): CCCCCCCCCCCCN1CCCC(O)C1 (stereo unspecified)
- survivor count (T/C endpoint: mean survival time, dose: 200.0 mg/kg/injection, schedule: Q01DX009 (ip), vehicle: saline with Tween-80): 0 of 6

Structure (SMILES): C/C(CC(=O)Nc1ccccn1)=N\c1ccccn1
- survivor count [1]: 4 of 6

Structure (SMILES): COc1ccc(N=N/N=c2\sc3cc(OC)ccc3n2C)cc1
- survivor count (T/C endpoint: median survival time, dose: 340.0 mg/kg/injection, schedule: Q01DX005 (ip), vehicle: saline with Tween-80): 4 of 6
- survivor count (T/C endpoint: median survival time, dose: 680.0 mg/kg/injection, schedule: Q01DX005 (ip), vehicle: saline with Tween-80): 6 of 6

Structure (SMILES): ClCCN(CC#CCCCC#CCN(CCCl)CCCl)CCCl
- T/C [5]: 140 % of control
- survivor count [5]: 3 of 6
- T/C (T/C endpoint: mean survival time, dose: 25.0 mg/kg/injection, schedule: Q01DX009 (ip), vehicle: saline): 140 % of control
- survivor count [6]: 1 of 6

Structure (SMILES): CCCC(C#N)OC(=O)c1ccccc1 (stereo unspecified)
- survivor count [7]: 3 of 6
- survivor count [4]: 0 of 6
- survivor count [1]: 0 of 6

Structure (SMILES): Oc1ccc2cc3ccccc3cc2c1
- survivor count (T/C endpoint: mean survival time, dose: 200.0 mg/kg/injection, schedule: Q01DX001 (ip), vehicle: DMSO): 1 of 3
- survivor count (T/C endpoint: mean survival time, dose: 400.0 mg/kg/injection, schedule: Q01DX001 (ip), vehicle: DMSO): 0 of 3

Structure (SMILES): Cc1cc([N+](=O)[O-])ccc1P(=O)(O)O
- survivor count [6]: 5 of 6
- survivor count (T/C endpoint: mean survival time, dose: 200.0 mg/kg/injection, schedule: Q01DX009 (ip), vehicle: saline): 2 of 6

Structure (SMILES): CCCCCOS(=O)(=O)c1ccc(Cl)c([N+](=O)[O-])c1
- survivor count [4]: 2 of 6
- survivor count [1]: 0 of 6

Structure (SMILES): COc1ccccc1N=Nc1c(O)n(-c2ccccc2OC)c(=S)n(-c2ccccc2OC)c1=O
- survivor count [8]: 0 of 6

Structure (SMILES): O=c1c(O)c(-c2ccc(O)c(O)c2)oc2cc(O)cc(O)c12
- survivor count (T/C endpoint: mean survival time, dose: 1600.0 mg/kg/injection, schedule: Q01DX009 (ip), vehicle: saline with Tween-80): 6 of 10

Structure (SMILES): COc1cccc2c1C(=O)c1c(O)c3c(c(O)c1C2=O)CC(O)(C(=O)CO)CC3OC1CC(N)C(O)C(C)O1 (stereo unspecified)
- T/C (T/C endpoint: mean survival time, dose: 1.25 mg/kg/injection, schedule: Q04DX003 (ip), vehicle: saline): 137 % of control
- T/C (T/C endpoint: mean survival time, dose: 2.5 mg/kg/injection, schedule: Q04DX003 (ip), vehicle: saline, evaluated on day 30): 131 % of control
- T/C (T/C endpoint: mean survival time, dose: 2.5 mg/kg/injection, schedule: Q04DX003 (ip), vehicle: saline, evaluated on day 60): 133 % of control
- T/C (T/C endpoint: mean survival time, dose: 4.5 mg/kg/injection, schedule: Q01DX009 (ip), vehicle: water): 125 % of control
- T/C (T/C endpoint: mean survival time, dose: 5.0 mg/kg/injection, schedule: Q04DX003 (ip), vehicle: saline, evaluated on day 30): 140 % of control
- T/C (T/C endpoint: mean survival time, dose: 5.0 mg/kg/injection, schedule: Q04DX003 (ip), vehicle: saline, evaluated on day 60): 132 % of control
- T/C (T/C endpoint: mean survival time, dose: 9.0 mg/kg/injection, schedule: Q01DX009 (ip), vehicle: water): 138 % of control
- T/C (T/C endpoint: mean survival time, dose: 18.0 mg/kg/injection, schedule: Q01DX009 (ip), vehicle: water): 125 % of control
- T/C (T/C endpoint: mean survival time, dose: 40.0 mg/kg/injection, schedule: Q04DX003 (ip), vehicle: saline): 127 % of control
- T/C (T/C endpoint: mean survival time, dose: 50.0 mg/kg/injection, schedule: Q01DX009 (ip), vehicle: water): 140 % of control
- T/C (T/C endpoint: mean survival time, dose: 72.0 mg/kg/injection, schedule: Q01DX009 (ip), vehicle: water): 134 % of control [5 of 6 alive]
- survivor count (T/C endpoint: mean survival time, dose: 144.0 mg/kg/injection, schedule: Q01DX009 (ip), vehicle: water): 6 of 6

Structure (SMILES): N#CCCN(C(=S)Nc1cccc(C(F)(F)F)c1)C1CCCCC1
- survivor count (T/C endpoint: median survival time, dose: 800.0 mg/kg/injection, schedule: Q01DX009 (ip), vehicle: Klucel (hydroxypropylcellulose) (HPC)): 0 of 6

Structure (SMILES): CC(C)COC(=N)c1ccccc1C1(O)CCCCC1
- survivor count [1]: 0 of 6

Structure (SMILES): CN(Cc1cnc2nc(N)nc(N)c2n1)c1ccc(C(=O)NC(CCC(=O)OC(C)(C)C)C(=O)OC(C)(C)C)cc1 (stereo unspecified)
- T/C (T/C endpoint: mean survival time, dose: 6.25 mg/kg/injection, schedule: Q01DX009 (ip), vehicle: saline with Tween-80): 134 % of control
- T/C (T/C endpoint: mean survival time, dose: 9.0 mg/kg/injection, schedule: Q01DX009 (ip), vehicle: saline with Tween-80): 126 % of control
- T/C (T/C endpoint: mean survival time, dose: 12.5 mg/kg/injection, schedule: Q01DX009 (ip), vehicle: saline with Tween-80): 149 % of control
- T/C (T/C endpoint: mean survival time, dose: 18.0 mg/kg/injection, schedule: Q01DX009 (ip), vehicle: saline with Tween-80): 143 % of control
- T/C (T/C endpoint: mean survival time, dose: 25.0 mg/kg/injection, schedule: Q01DX009 (ip), vehicle: saline with Tween-80): 146 % of control
- T/C (T/C endpoint: mean survival time, dose: 25.0 mg/kg/injection, schedule: Q04DX003 (ip), vehicle: Klucel (hydroxypropylcellulose) (HPC)): 126 % of control
- T/C (T/C endpoint: mean survival time, dose: 50.0 mg/kg/injection, schedule: Q04DX003 (ip), vehicle: Klucel (hydroxypropylcellulose) (HPC)): 131 % of control
- T/C (T/C endpoint: mean survival time, dose: 100.0 mg/kg/injection, schedule: Q04DX003 (ip), vehicle: Klucel (hydroxypropylcellulose) (HPC)): 131 % of control [4 of 6 alive]
- survivor count (T/C endpoint: mean survival time, dose: 200.0 mg/kg/injection, schedule: Q04DX003 (ip), vehicle: Klucel (hydroxypropylcellulose) (HPC)): 4 of 6

Structure (SMILES): O=C(O)C(O)C(O)C1[O][Sb][O]C1CO (stereo unspecified)
- survivor count [2]: 0 of 6

Structure (SMILES): O=C1CCC2(C=C(Br)C(=O)C(Br)=C2)O1
- survivor count (T/C endpoint: mean survival time, dose: 10.0 mg/kg/injection, schedule: Q01DX009 (ip), vehicle: saline with Tween-80): 2 of 6
- survivor count (T/C endpoint: mean survival time, dose: 20.0 mg/kg/injection, schedule: Q01DX009 (ip), vehicle: saline with Tween-80): 2 of 6
- survivor count [3]: 0 of 6
- survivor count [4]: 0 of 6
- survivor count [1]: 0 of 6

Structure (SMILES): NC1=NC(=O)CC(=O)N1
- survivor count [8]: 1 of 6

Structure (SMILES): [Br][Pt+2][Br].[NH-]c1ccccc1F.[NH-]c1ccccc1F
- survivor count (T/C endpoint: mean survival time, dose: 200.0 mg/kg/injection, schedule: Q04DX003 (ip), vehicle: distilled water + Tween-80): 4 of 6

Structure (SMILES): Cc1cc[n+](CCc2ccccc2)cc1
- survivor count [7]: 1 of 6
